Experimental data taken from US20230050038A1.
No constants are given. Whether binding was seen depends on the method and setting. Some results given as binding are weak or reduced against the parent protein; the word gives no strength.

Protein sequences, listed by entry. Tags and fused reporters are not part of them. Residues count along the entry.
UniProt P16234, residues 24-528: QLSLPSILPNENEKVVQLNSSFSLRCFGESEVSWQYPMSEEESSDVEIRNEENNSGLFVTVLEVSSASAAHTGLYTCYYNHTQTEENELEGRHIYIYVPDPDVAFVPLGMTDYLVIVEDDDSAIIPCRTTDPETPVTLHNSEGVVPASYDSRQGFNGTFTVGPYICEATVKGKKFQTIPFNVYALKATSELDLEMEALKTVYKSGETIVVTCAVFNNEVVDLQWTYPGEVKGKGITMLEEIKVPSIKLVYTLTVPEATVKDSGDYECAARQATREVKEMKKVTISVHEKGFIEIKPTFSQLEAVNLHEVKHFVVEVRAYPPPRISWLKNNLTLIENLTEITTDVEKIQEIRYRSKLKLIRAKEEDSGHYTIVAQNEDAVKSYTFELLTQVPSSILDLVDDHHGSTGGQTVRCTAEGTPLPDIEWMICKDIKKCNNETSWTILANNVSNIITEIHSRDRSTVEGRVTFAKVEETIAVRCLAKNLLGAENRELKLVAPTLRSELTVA
UniProt P01127, residues 82-190: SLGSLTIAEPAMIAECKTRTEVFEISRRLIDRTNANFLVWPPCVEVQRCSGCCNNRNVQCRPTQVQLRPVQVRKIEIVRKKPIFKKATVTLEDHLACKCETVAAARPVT

Key:
[1] = molecular target: VEGFR2 (recombinant, surface plasmon resonance) (UniProt P35968); assay: surface plasmon resonance
[2] = molecular target: PDGFRα soluble extracellular domain (UniProt P16234); assay: yeast surface display, soluble receptor ectodomain

Row | binding [1] | binding [2] | Substance
1 | binds | – | PDGF-AB (recombinant) (from UniProt P04085 87-211; P01127 82-190) (ligand)
2 | binds | – | PDGF-BB (recombinant, wild type) (from UniProt P01127 82-190) (ligand)
3 | binds | – | PDGF-AA (recombinant) (from UniProt P04085 87-211) (ligand)
4 | – | binds | PDGF-A mature polypeptide, displayed on the yeast surface (from UniProt P04085 87-211) (ligand)
